# This is one part of the list. Further columns of the screen follow, without active or inactive calls. Compounds called inactive in the main read-out are mostly missing here. Potencies come from curve fits of mixed quality, noted in brackets.
# Assay: qHTS Assay for Lipid Storage Modulators in Drosophila S3 Cells;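 for cell number change: cells counted by Cell Tracker Red CMTPX staining in the red channel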
# Details: BODIPY lipid droplet fluorescence, 18-24 h; for cell number change: measured here: cell count max response, cells fed with added oleic acid
# How it was run: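 Drosophila S3 cells got compounds at several concentrations plus oleic acid (400 uM solution). Laser-scanning cytometry with 488 nm excitation read lipid droplets at 500-530 nm and cells at 575-640 nm. Percent activity was relative to 20 uM Triacsin C.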
# [1] = measured here: lipid fluorescence (Fed channel) AC50, cells fed with added oleic acid
# [2] = measured here: cell number channel AC50, cells fed with added oleic acid
Structure (SMILES),AC50 [1],cell number change [%],AC50 [2]
COc1ccc(S(=O)(=O)NCC2CCCO2)cc1NC(=O)c1ccccc1F (configuration not stated),"18.4 µM [falling, partial curve]",–,–
COc1cccc(CN(C)C(=O)c2csc3c2CCCC3)c1OC,–,-0.677,–
COc1ccc(CN(C)CC(O)COC(c2ccccc2)c2ccccc2)c(OC)c1OC (configuration not stated),–,5.13,–
CCNC(=O)CSc1nnc(-c2ccccc2)n1-c1ccc(OCC)cc1,–,4.34,"0.0731 µM [rising, full curve, poor fit]"
COCCn1c(SC(C)C(=O)Nc2ccc(Cl)cn2)nnc1-c1ccncc1 (configuration not stated),–,24.7,–
O=S(=O)(c1ccc2ccccc2c1)N1CCc2ccccc21,"29.1 µM [rising, single point]",11.9,–
Cc1ccc2nc(-c3ccncc3)c(Nc3ccccc3)n2c1,"2.31 µM [rising, single point]",0.122,–
Cc1nnsc1S(=O)(=O)c1ccccc1,"8.2 µM [rising, partial curve]",16.9,–
Cc1ccc(NC(=O)CO/N=C/c2ccc(N(C)C)cc2)cc1,"13 µM [falling, partial curve]",42.9,"7.31 µM [rising, partial curve]"
CC(=NCCN1CCOCC1)C1=C(O)c2ccccc2C1=O,–,3.63,–
CCCNC1CCS(=O)(=O)C1 (configuration not stated),–,-3.91,–
COc1ccc(Cl)cc1Nc1nc(C)nc2c1nnn2Cc1ccccc1,"0.517 µM [rising, full curve, poor fit]",8.29,–
COc1ccc(NC(=O)COC(=O)c2ccc(OCc3ccccc3Cl)c(OC)c2)c(OC)c1,"0.58 µM [rising, full curve]",12.3,–
COc1ccc2c3c(cccc13)N(C)N=C2C,"0.651 µM [rising, single point]",-0.41,–
CC(C)OP(=O)(OC(C)C)C(NC(=O)c1cccc([N+](=O)[O-])c1)C(N)=O (configuration not stated),"32.6 µM [falling, single point]",16.3,–
CCSc1nnc(NS(=O)(=O)c2ccc(C)cc2)s1,"0.651 µM [rising, partial curve, poor fit]",2.27,–
O=C(Nc1ccc(Cl)c(-c2nc3ccccc3[nH]2)c1)c1cccnc1,"4.11 µM [rising, partial curve, poor fit]",–,"0.082 µM [rising, full curve]"
CCOC(=O)Nc1ccccc1C(=O)Nc1cc(C)cc(C)c1,"16.4 µM [falling, single point]",-17.2,–
O=C(N/N=C/c1ccco1)c1ccccn1,"6.51 µM [rising, single point]",-4.6,–
Cc1cccc(N=Nc2c(C)[nH]n(-c3ccccc3)c2=O)c1,"8.2 µM [falling, partial curve]",-39.8,"25.9 µM [falling, partial curve, poor fit]"
COc1ccc(OC)c(C2CC(=O)NC(SC)=C2C#N)c1 (configuration not stated),"2.31 µM [rising, partial curve, poor fit]",30.5,"2.59 µM [rising, single point]"

Structure (SMILES),AC50 [1],cell number change [%],AC50 [2]
CCOc1ccc(N(CC(=O)N2CCOCC2)S(=O)(=O)c2ccc(F)cc2)cc1,"6.51 µM [rising, single point]",-31.7,"18.4 µM [falling, partial curve, poor fit]"
COc1cc2[nH]c(=S)n(NC(=O)c3ccccc3)c(=O)c2cc1OC,–,33.2,"3.66 µM [rising, partial curve]"
O=C(OCC(=O)N1CCCCC1)c1cc2ccccc2cc1O,–,-3.65,–
CCn1cc(C(=O)O)c(=O)c2cc(F)c(N3CCNCC3)cc21,"3.26 µM [falling, partial curve, poor fit]",-48.5,"18.4 µM [falling, single point]"
O=P(COCCOCP(=O)(c1ccccc1)c1ccccc1)(c1ccccc1)c1ccccc1,"20.6 µM [rising, partial curve]",22.2,–
COc1cccc(Oc2cnc(N)nc2-c2ccc(OC)cc2O)c1,"6.51 µM [rising, single point]",–,–
N#Cc1c(-c2ccccc2Cl)cc(-c2ccccc2)nc1Br,"29.1 µM [falling, single point]",-28,–
COC(=O)c1ccccc1NC(=O)c1ccc(NC(=O)C2CCCO2)cc1 (configuration not stated),"0.58 µM [falling, full curve, poor fit]",-41.7,"16.4 µM [falling, partial curve]"
O=C(CN1CCCC1)Nc1nc(-c2ccc3c(c2)CCN3C(=O)c2ccccc2F)cs1,–,3.85,–
O=C(C(NS(=O)(=O)c1cccs1)c1ccccc1)N1CCN(c2ccccc2)CC1 (configuration not stated),"18.4 µM [falling, partial curve, poor fit]",-2.59,–
COc1ccc2[nH]cc(/C=C/C(=O)c3ccccc3)c2c1,"6.51 µM [falling, full curve]",-37.4,"6.51 µM [falling, full curve]"
Cc1ccccc1-c1nc(CN2CCC(C(=O)N3CCN(c4ccccn4)CC3)CC2)c(C)o1,"0.517 µM [rising, single point]",25.5,"2.31 µM [rising, full curve, poor fit]"
O=C(CN1CCN(C(=O)c2ccccc2)CC1)Nc1ccccc1,"29.1 µM [rising, single point]",–,–
C=CC(C)Sc1nc2c(c(=O)n(C)c(=O)n2C)n1Cc1ccccc1Cl (configuration not stated),"2.31 µM [rising, partial curve]",–,–
Cc1ccc2c(c1)c(CC(=O)Nc1ccc(F)cc1)c(C(=O)O)n2C,"5.8 µM [falling, partial curve, poor fit]",-6.39,–
COc1ccc(Cl)cc1S(=O)(=O)N1CCN=C1c1ccccc1,"6.51 µM [falling, single point]",2.79,–
CN1CCN(C(=O)c2ccc(Cl)cc2)CC1,"16.4 µM [rising, partial curve]",10.3,–
c1ccc(C2CCC3(CC2)Oc2ccccc2C2CC(c4cccnc4)=NN23)cc1 (configuration not stated),–,16.7,"0.259 µM [rising, full curve, poor fit]"
CCc1cc(=O)oc2cc(C)cc(OCC(=O)N3CCC(C(=O)O)CC3)c12,"0.184 µM [falling, full curve, poor fit]",-12.8,–
C=C(C)C1CC=C(C)/C(=N/NC(=O)c2ccc(NC(=O)c3cccc(C)c3)cc2)C1 (configuration not stated),"29.1 µM [falling, partial curve, poor fit]",4.89,–
Cc1ccc(N2CCN(C(=O)N3CCCC3)CC2)cc1Cl,"3.66 µM [rising, partial curve]",–,"2.31 µM [rising, partial curve]"

Structure (SMILES),AC50 [1],cell number change [%],AC50 [2]
O=C(Nc1nccs1)c1ccc(CSc2nnnn2-c2ccccc2)cc1,"0.13 µM [rising, full curve]",-1.57,–
C=C(Cl)COC(=O)[C@H]1C2C=CC(C2)C1C(=O)O (some centres not stated),"18.4 µM [falling, partial curve]",-41.7,"7.31 µM [falling, partial curve]"
O=C(O)/C=C/c1cn(Cc2ccccc2Cl)nc1-c1ccccc1,"0.651 µM [rising, full curve, poor fit]",19.9,–
CCC(=O)Nc1cccc(C(=O)/C=C/c2cccs2)c1,–,0.955,–
Cc1cc(C(=O)NNC(=O)COc2c(C)cc(Br)cc2C)n[nH]1,"16.4 µM [rising, partial curve, poor fit]",9.65,–
CC(C)c1cccc(-c2ccc3c(c2)S(=O)(=O)c2cccc(C(=O)O)c2C3=O)c1,"23.1 µM [rising, single point]",16,–
CC1(C)C(=O)OC(c2c3ccccc3cc3ccccc23)C(C)(C)C1=O (configuration not stated),"0.731 µM [falling, single point]",2.35,–
CCN(CC(=O)Nc1ccccc1C(F)(F)F)C(=O)Cn1c(=O)cnc2ccccc21,–,-23.3,"0.651 µM [falling, full curve, poor fit]"
CCOC(=O)c1c(C)[nH]c(N=Nc2ccccc2Cl)c1C,"7.31 µM [falling, partial curve]",-35.3,"8.2 µM [falling, partial curve]"
CC(CC(=O)N1CCN(S(=O)(=O)c2ccc(Cl)cc2)CC1)n1cncn1 (configuration not stated),–,2.7,–
CCN(CC)S(=O)(=O)c1cc(C(=O)NC2=NCCS2)ccc1Cl,–,9.26,–
COc1cc2oc(=O)ccc2cc1[C@H](O)[C@@H](O)C(C)(C)O,"29.1 µM [rising, single point]",10.7,–
COc1ccc(C(=O)NC(=S)NC(C)(C)C)cc1Br,–,-32,"18.4 µM [falling, single point]"
C=CCOc1c(Br)cc(/C=N\n2nnnc2N)cc1OC,"1.84 µM [rising, partial curve, poor fit]",–,"1.03 µM [rising, partial curve]"
O=C(Cn1cc(C(F)(F)F)cc(Cl)c1=O)NCc1ccc(F)cc1,"6.51 µM [falling, partial curve]",-21,–
CCOC(=O)CC(NS(=O)(=O)Cc1ccccc1)c1ccc(C)cc1 (configuration not stated),"0.00461 µM [falling, full curve, poor fit]",-7.46,–
CCN(CCCNC(=O)C1CCN(S(=O)(=O)CC)CC1)c1ccccc1,–,-3.99,–
COc1ccccc1/C=C/C(=O)NCC(=O)N1CCC(N(C)C2CCCC2)CC1,"0.184 µM [falling, full curve, poor fit]",-25,–
Cc1cnc(C(=O)Oc2ccc(-c3ccccc3)cc2)cn1,"29.1 µM [rising, single point]",8.82,–

# Arranged by number of heavy atoms (ascending): part of the list above
Structure (SMILES),AC50 [1],cell number change [%],AC50 [2]
Cc1cnc(C(=O)Oc2ccc(-c3ccccc3)cc2)cn1,"29.1 µM [rising, single point]",8.82,–
COc1ccc(Cl)cc1S(=O)(=O)N1CCN=C1c1ccccc1,"6.51 µM [falling, single point]",2.79,–
O=C(O)/C=C/c1cn(Cc2ccccc2Cl)nc1-c1ccccc1,"0.651 µM [rising, full curve, poor fit]",19.9,–
